# Assay results

The results are deposited in PubChem (AID1508623; NCATS, 2021).

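Firefly luciferase light from HEK293 cells carrying a huntingtin (HTT) promoter reporter, read after 24 hours of compound exposure, giving single-concentration activity change. Percent change in reporter signal versus vehicle (0%) down to no light (-100%); more negative values mean stronger inhibition of promoter activity.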

Values are in %. Common to all entries: at 57.5 µM (top of the series). Only part of the assay is listed here, not a random draw.

structure,activity change (%)
COC(=O)c1cc2oc3ccccc3c2n1CC(=O)Nc1cc(OC)cc(OC)c1,-11.78
CCOc1ccccc1CNC(=O)c1cc2c(=O)n(Cc3ccco3)ccc2nc1C,-34.8
COc1ccc(CNC(=O)Cn2c(-c3ccccc3)cc(C(C)=O)c2C)cc1OC,-39.36
Cc1ccc(CN2CCN(C3CCN(C(=O)c4ccc(C)cc4)CC3)C(=O)C2=O)cc1,-20.38
CCc1ccc(S(=O)(=O)Nc2cccc(-c3ccc(N4CCCCC4)nn3)c2)s1,17.07
COc1ccc(CNC(=O)c2cc(-c3cccc(Cl)c3)on2)cc1,-7.129
Cc1cc(C)c(S(=O)(=O)N2CCC(n3c(C(F)(F)F)nc4cccnc43)CC2)c(C)c1,-14.34
Cc1cc(C)cc(NC(=O)c2cc3c(=O)n(Cc4ccco4)ccc3nc2C)c1,-12.39
Cc1cc(-c2ccc(S(=O)(=O)Nc3ccc(Cl)cc3C)cc2)on1,-60.6
CC(=O)N1CCc2cc(S(=O)(=O)CCC(=O)NCc3ccc(Cl)cc3)ccc21,-50.52
CC1CCN(c2ccc(-c3cccc(NS(=O)(=O)c4ccc(Cl)s4)c3)nn2)CC1,47.67
Cc1c(CC(=O)N2CCCCC2)c(=O)oc2cc(O)ccc12,-6.396
Cc1ccccc1OCCCCn1c(-c2ccc(Cl)cc2)nc2ccccc2c1=O,-0.0604
Cc1ccc(NC(=O)/C=C\C(=O)N(c2ccc(C(C)C)cc2)C(C(=O)NCc2ccco2)c2ccc(F)cc2)cc1 (stereo unspecified),-83.1
Cc1cc(C)cc(OCCOCCn2c(-c3ccc(Cl)cc3)nc3ccccc3c2=O)c1,9.299
Cc1oc2cc3oc(=O)c(CCC(=O)N4CCCCC4)c(C)c3cc2c1C,44.05
COCCOC(=O)c1c(C)n(S(=O)(=O)c2ccc(C)cc2)c2ccc(NS(=O)(=O)c3ccc(C)cc3)cc12,-35.26
COc1ccc(-c2cc(C(=O)Nc3c(C)nn(Cc4ccc(F)cc4)c3C)no2)cc1OC,-36.98
COc1ccc(C2(N3CCN(c4cccc(C)c4C)CC3)C(=O)c3ccccc3C2=O)cc1,-10.25
Cc1nn(-c2ccc(N3CCCC3)nn2)c(C)c1CCC(=O)N1CCN(c2ccccc2)CC1,-37.04
COc1ccc(N2CCN(C(=O)c3cc(-c4ccc(C)c(F)c4)on3)CC2)cc1,-19.02
Cc1ccc(CN2CCN(C3CCN(S(=O)(=O)c4ccc(C)cc4)CC3)C(=O)C2=O)cc1,-7.692
Cc1ccccc1NC(=O)c1c(C)oc2ccc(O)c(CN3CCOCC3)c12,-21.53
Cc1ccccc1CNC(=O)c1cnc2sc(N3CCC(C)CC3)nn2c1=O,-9.313
O=C(/C=C/c1ccccc1)N1CCN(Cc2cc(=O)n3nc(-c4ccccc4)sc3n2)CC1,-7.392
COc1ccc(NC(=O)c2cc(-c3ccc4c(c3)OCO4)on2)c(OC)c1,-1.453
Cc1ccc(NC(c2nnc(-c3ccccc3)o2)c2ccccc2F)c(Cl)c1 (stereo unspecified),-9.752
CCCOc1ccc(NC(=O)CC2C(=O)N(c3ccccc3)C(=O)N2Cc2ccco2)cc1 (stereo unspecified),-19.12
COc1ccc(S(=O)(=O)Nc2cccc(-c3ccc(N4CCCC4)nn3)c2)cc1F,-2.357
COc1ccc(-c2cc(C(=O)Nc3cc(C(F)(F)F)ccc3Cl)no2)cc1,-24.31
O=C(Nc1cccc(-c2nc3ccccc3o2)c1)c1ccc(-c2ccc(Br)cc2)o1,-6.637
COC(=O)c1ccccc1NC(=O)CN1C(=O)COc2ccc(Cl)cc21,-24.9
COc1ccc(Cl)cc1NC(=O)c1c(C(=O)Nc2cccc(C)c2C)sc2nc(C)cc(=O)n12,-16.19
COc1ccc(-c2cc(C(=O)Nc3cnn(Cc4ccc(F)cc4)c3)no2)cc1OC,-9.261
Cc1ccc(NC(=O)c2c(C)oc3ccc(O)c(CN4CCCCC4)c23)c(C)c1,-33.72
COc1ccc(Nc2nnc(-c3ccc(C)c(S(=O)(=O)NCCO)c3)c3ccccc23)cc1C(N)=O,-8.159
Cc1oc2ccc(O)c(CN3CCN(C)CC3)c2c1C(=O)Nc1cccc(C(F)(F)F)c1,-43.83
COc1ccc(-c2cc(C(=O)Nc3cc(C)ccc3O)no2)cc1OC,4.111
Cc1ccc(NC(=O)CC(c2ccc(F)cc2)N2Cc3ccccc3C2=O)cc1C (stereo unspecified),-22.53
Cc1ccc(S(=O)(=O)Nc2ccc(-c3ccc(N4CCCCCC4)nn3)cc2)cc1C,-13.67
Cc1ccc(S(=O)(=O)N2CCC(N3CCN(Cc4ccccc4)C(=O)C3=O)CC2)cc1C,-20.45
COc1ccc(OC)c(S(=O)(=O)N2CCC(n3c(C)nc4cccnc43)CC2)c1,-16.88
Cc1ccc(C)c(NC(=O)CCc2c(C)nn(-c3ccc(N4CCCC4)nn3)c2C)c1,-29.43
Cc1cccc(CNC(=O)c2cnc3sc(N4CCCCC4)nn3c2=O)c1,-13.73
COc1ccccc1N1CCN(C(=O)C2CCN(S(=O)(=O)Cc3ccccc3)CC2)CC1,-20.03
CCc1ccc(-n2c(CCC(=O)O)ccc2-c2cccs2)cc1,-12.93
COc1ccccc1C(=O)N(c1ccc(C)cc1)S(=O)(=O)c1ccc(Cl)cc1,-61.79
Cc1ccc(S(=O)(=O)Nc2cccc(-c3ccc(N4CCCC4)nn3)c2)c(C)c1,-9.976
COc1cc(C2C(=O)N(C3CCCCCC3)CC(=O)N2CCC2=CCCCC2)ccc1OC(C)C (stereo unspecified),-7.827
CCOc1ccc(CCNC(=O)c2cnc3sc(N4CCCCC4)nn3c2=O)cc1,-13.68
COc1ccc(Br)cc1CNC(=O)Cn1nc(C)n2c(cc3cc(F)ccc32)c1=O,-12.09
COc1cc(C2C(=O)N(C3CCCCC3)CC(=O)N2C2CCCC2)ccc1OC(C)C (stereo unspecified),8.025
COc1ccc(C2=C(N3CCN(c4cccc(C)c4C)CC3)c3ccccc3C2=O)cc1,8.774
C=C(C)Cn1c(SCC(=O)Nc2cccc(C)c2)nc2sc3c(c2c1=O)CCCC3,-12.55
CSc1ccc(CNC(=O)c2cc3c(=O)n(Cc4ccco4)ccc3nc2C)cc1,-32.19
Cc1cccc(C(=O)Nc2cc3c(cc2N2CCCCC2)n(C)c(=O)n3C)c1,-4.657